At least one compound was matched to its structure with a doubt left.
Test system: E. faecalis ATCC 29212
Test: Broth microdilution MIC
Assay type: cell-based, Enterococcus faecalis
Protocol: The process for preparing susceptibility test medium are the following steps: • a. Preparing Mueller Hinton Broth II medium by adding 22 grams powdered media to 1.0 liter distilled water; • b. Autoclaving (121° C., 15 psi, 15 minutes) and cooling the medium; • c. Adding Oxyrase® up to about 10% final volume and keeping at 35-37° C. in an incubator for 30 minutes; • d. Adding about 50 μL to each well of a 96 well microtiter plate; • e. Weighing drug and adding broth to drug to bring up to about (standard 128 μg/ml); • f. Adding 50 μL of the drug to the first column of the titer plate; • g. Diluting by two-fold serial diluting across or down the plate. • h. Preparing a Prompt™ inoculum at 10^8 CFU/ml; • i. Diluting inoculum 1:100 in the broth at […] in 9.9 ml (1:100) is 10^6 colony forming units (CFU) forming the adjusted inoculum; • j. Adding 50 μL of the adjusted inoculum to the wells of the microtiter plate; • k. Incubating the plates at 35-37° C. for 18-22 hours; and • l. Reading, with the unaided eye, the MIC.
The in vitro activities of tigecycline and control antibiotics were determined by the broth microdilution method as recommended by the NCCLS. […] The pH of the media was determined by pH meter (Corning 430). […]

SMILES: CN(C)[C@@H]1C(O)=C(C(N)=O)C(=O)[C@@]2(O)C(O)=C3C(=O)c4c(O)cccc4[C@@](C)(O)[C@H]3C[C@@H]12 [Tetracycline]
- Minimal Inhibitory Concentration (MHB II + 2% Oxyrase): 16->16
- Minimal Inhibitory Concentration (Mueller Hinton Broth II (MHB II)): 16->16

Reference: patent US20050130252A1, “Stabilized susceptibility tests of aerobic pathogens” (Wyeth Holdings Corporation, priority 2003, published 2005)
